The list shows a part of the results. The source does not settle which construct or isoform was used.
Target: T1, ETS1 (UniProt P14921)
T1 sequence: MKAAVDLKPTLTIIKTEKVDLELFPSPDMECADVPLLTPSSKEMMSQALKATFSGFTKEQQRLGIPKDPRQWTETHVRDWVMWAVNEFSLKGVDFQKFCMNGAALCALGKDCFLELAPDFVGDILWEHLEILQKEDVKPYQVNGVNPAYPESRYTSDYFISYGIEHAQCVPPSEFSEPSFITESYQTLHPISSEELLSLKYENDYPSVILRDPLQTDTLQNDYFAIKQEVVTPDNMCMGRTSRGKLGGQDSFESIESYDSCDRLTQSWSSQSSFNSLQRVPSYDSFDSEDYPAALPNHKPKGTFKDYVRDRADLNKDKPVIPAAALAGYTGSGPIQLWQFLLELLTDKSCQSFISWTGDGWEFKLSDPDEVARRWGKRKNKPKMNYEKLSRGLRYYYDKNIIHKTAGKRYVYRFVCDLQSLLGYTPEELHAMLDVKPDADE
Assay: DAPPL (digital affinity profiling via proximity ligation, sequencing)
Conditions: 10 mM Tris-HCl pH 7.5, 50 mM NaCl, 1 mM DTT, 4% glycerol, room temperature, 30 min; GST-TFs on glutathione beads, 16-mer random dsDNA library, 0.1% …; high values mean tight binding; double strand, one strand shown; scale: fold enrichment (6-mer frequency, TF over GST control)

Sequence | binding signal
TATCAT | 1.21
ACTACC | 1.63
CTGTTA | 1.3
CTGTCA | 1.18
TGAATT | 1.18
TGACCT | 1.68
CCATTG | 1.18
TACTCT | 1.32
TAATAA | 1.18
CTCAGG | 1.07
TTTTGT | 1.35
ATTTCA | 1.27
CCGTCC | 1.36
ATTTGG | 1.37
CCACGC | 1.18
AATCAA | 1.15
TCGCGC | 1.13
TACTTT | 1.45
TACGTA | 1.38
GATACG | 1.13
GATACT | 1
TCAACC | 1.31

Sequence | binding signal
TATTTC | 2.04
TGAAAC | 1.25
ATACCG | 1.09
CACTTC | 3.51
TCGACA | 1.42
TTCATC | 1.25
GGAAAC | 1.31
TTCAGC | 1.18
GCTACC | 1.27
TCGCTT | 1.12
CGAAGC | 1.28
AAAACT | 1.33
AACAAA | 1.18
TATGGT | 1.42
GTAAAA | 1.13
CAATCA | 1.19
CCCACG | 1.25
TGATGG | 1.43
TGGCCT | 1.6
ATTGCC | 1.27
CGAATA | 1.17
TCGTTC | 1.25

Copied from the list:
ATACCG – binding signal: 1.09
TGAAAC – binding signal: 1.25
CACTTC – binding signal: 3.51
ATTGCC – binding signal: 1.27

More entries:

Sequence | binding signal
TCGATT | 1
GCATCC | 1.53
TGGTCT | 1.59
CCCTCG | 1.33
TTTTTA | 1.44
AACGCT | 1.2
AATAGA | 1.06
TTACAA | 1.17
CTTCGC | 1.48
AACGTT | 1.08
GCCTTT | 1.26
TCTCAA | 1.35
AAATAT | 1.37
TGTATC | 1.39
CCCAAT | 1.32
ACCTGC | 1.53
ACTGCG | 1.15
ATTCTG | 1.25
CGCGAC | 1.12
CCCCCG | 1.06
GAACCT | 1.11

— article PMC7862700
